In PubChem BioAssay AID2685 (National Center for Advancing Translational Sciences (NCATS), 2010):
The other results are listed elsewhere or left out. These are further read-outs of the screen, such as a control signal, another cell line or another target. No call is given for them. Compounds called inactive in the main read-out are mostly missing here. The note in brackets gives the kind of curve behind each potency; many fits are weak.

Experiment: qHTS Assay for Lipid Storage Modulators in Drosophila S3 Cells;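 on cell number change: cells counted by Cell Tracker Red CMTPX staining in the red channel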
Conditions: BODIPY lipid droplet fluorescence, 18-24 h; for cell number change: measured here: cell count max response, cells fed with added oleic acid
In short: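 Laser-scanning cytometry quantifies lipid droplet accumulation (500–530 nm total intensity; droplet/cell object ratio) in oleic acid-fed (400 uM added) Drosophila S3 cells treated with a concentration series. 20 uM Triacsin C defined 100% inhibition.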

[1] = measured here: lipid fluorescence (Fed channel) AC50, cells fed with added oleic acid
[2] = measured here: cell number channel AC50, cells fed with added oleic acid

SMILES | cell number change | AC50 [1] | AC50 [2]
CCC(CC)COC(=O)C(C#N)c1nc2ccccc2nc1N1CCOCC1 (stereo not drawn) | -18% | 0.0731 µM [rising, full curve, poor fit] | –
CC1CCCCC1NC(=O)CN(C)S(=O)(=O)c1ccc2c(c1)c(=O)n(C)c(=O)n2C (stereo not drawn) | -26.5% | 0.0517 µM [falling, full curve, poor fit] | 0.731 µM [falling, full curve, poor fit]
Cc1cc(OC(C)C(=O)NCC2CCC(C(=O)O)CC2)c2c(C)c(C)c(=O)oc2c1 (stereo not drawn) | 8.43% | 1.84 µM [falling, partial curve] | –
Cc1cc(OCC(=O)Nc2cc(C(C)(C)C)on2)ccc1[N+](=O)[O-] | -17.8% | 0.366 µM [falling, partial curve] | –
Nn1c(-c2ccccc2)nc2cc(Cl)ccc2c1=O | -4.21% | – | –
CC(=O)c1ccc(NC(=O)c2cc(-c3cccs3)on2)cc1 | 13.9% | – | –
CCOc1ccc(Cl)cc1S(=O)(=O)NCc1cccnc1 | 66.9% | 2.59 µM [rising, partial curve] | 8.2 µM [rising, partial curve]
CCOCCn1c(N2CCCC2)nc2c1c(=O)[nH]c(=O)n2C | -7.3% | – | 1.84 µM [rising, partial curve]
Cc1cc(C)n(CCC(=O)N=Nc2c(O)[nH]c3ccccc23)n1 | – | 2.31 µM [rising, partial curve] | –
COc1ccc(C(=O)NC(=S)Nc2ccc3c(c2)Cc2ccccc2-3)cc1 | 21.9% | 0.00411 µM [rising, full curve, poor fit] | 4.61 µM [rising, full curve, poor fit]
O=C(CCN1CCN(Cc2ccccc2)CC1)NNC(=O)Nc1cccc(Cl)c1 | 1.08% | 29.1 µM [falling, single point] | –
CN1CCN(C(=O)CSc2nc3c(c(=O)n(C)c(=O)n3C)n2C)CC1 | 3.04% | – | –
Nc1nc2ccc([N+](=O)[O-])cc2[nH]1 | 3.84% | 0.092 µM [rising, full curve, poor fit] | –
O=C(C1CCC1)N1CCc2cc(S(=O)(=O)NCc3ccco3)ccc21 | 23.2% | 20.6 µM [rising, partial curve] | –
C/C(=N/NC(=O)c1cnccn1)c1cccs1 | – | 29.1 µM [falling, single point] | 3.66 µM [falling, partial curve, poor fit]
COc1ccc(S(=O)(=O)NCc2ccc3c(c2)cc(C)n3C)cc1 | -57.8% | 14.6 µM [falling, partial curve, poor fit] | 32.6 µM [falling, partial curve, poor fit]
CCNC(=S)N/N=C1\CCCCc2ccccc21 | -49.7% | 29.1 µM [falling, single point] | 32.6 µM [falling, single point]
COc1ccc(S(=O)(=O)NNC(=O)c2cc3c4ccccc4n(C)c3s2)cc1 | -27.6% | – | –
NC(=O)c1cc([N+](=O)[O-])cc2c1C=Cc1ccccc1O2 | 22.4% | 6.51 µM [falling, single point] | 0.058 µM [falling, single point]
COc1ccc(C(=O)NC2CC2)cc1OC1CCN(Cc2ccccc2)CC1 | -8.67% | 6.51 µM [falling, single point] | –
C=CCn1c(Cc2csc(N)n2)nnc1SCC(=O)Nc1ccc(C(=O)OCC)cc1 | 19% | 0.092 µM [rising, full curve, poor fit] | 0.103 µM [rising, full curve, poor fit]
COc1ccc(NC(=O)CSc2nc(C)cs2)cc1OC | -7% | – | –
CCn1c(-c2sc(-c3ccccc3)nc2C)n[nH]c1=S | 90.8% | – | –
O=C(CCCn1c(SCC(=O)c2ccc(Cl)cc2)nc2ccccc2c1=O)NCc1ccco1 | 0.0707% | – | –
CN(CC(=O)NCCc1ccccc1)S(=O)(=O)c1cnc[nH]1 | 1.38% | 0.731 µM [falling, full curve, poor fit] | –
Cc1ccc(Cn2cc(/C=C/C(=O)O)c(-c3ccccc3)n2)cc1 | -26.8% | 3.66 µM [falling, single point] | –
CCOC(=O)C1=NN(C(=O)Cc2ccccc2)C(O)(c2ccc(Cl)cc2)C1 (stereo not drawn) | -14.1% | 0.731 µM [falling, single point] | –
CC1(C)CC(=O)c2cnc(NC(=O)CSC(=S)N3CCCCC3)nc2C1 | 14.9% | – | –
c1ccc(N(c2ccccc2)c2nc(N3CCCC3)nc(-n3ccnc3)n2)cc1 | -32.5% | 29.1 µM [falling, single point] | 29.1 µM [falling, single point]
CCOC(=O)CSC1=NC(=O)/C(=C\c2ccc(Cl)cc2)S1 | -20.6% | – | –

Single entries from the list.
Under AC50 [1], O=C(CCN1CCN(Cc2ccccc2)CC1)NNC(=O)Nc1cccc(Cl)c1 shows 29.1 µM [falling, single point]
Under cell number change, COc1ccc(C(=O)NC2CC2)cc1OC1CCN(Cc2ccccc2)CC1 shows -8.67%
